Data as given in PubChem BioAssay AID1224828 (NIAID, 2016)
Test: 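Regulators linking TLR4 signalling to p65 nuclear translocation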 (primary screen). System: mouse RAW264.7 G9 macrophage reporter cells (GFP-p65, Tnf promoter-mCherry). Reagent: siRNA pool against mouse genes, 100 nM. Duration: 2 days siRNA transfection, then 40 min LPS before fixation. Treatment: LPS (Salmonella minnesota R595) at 10 ng/ml. Measured: 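Microscopy ratio of nuclear to perinuclear-ring GFP-p65 signal, scaled to the plate median; gene score is the average of two replicate robust z-scores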. Reading the numbers: p65 translocation robust z-score: higher = more nuclear NF-kappaB p65 after LPS than the plate median; nuclear/cytoplasmic p65 ratio: higher = more nuclear NF-kappaB p65. Hit rule: 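Active if robust z is above 3.3 (negative regulators) or below -1.56, the Tlr4 control median (positive regulators); activity score 50 or more; control wells not called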. Meaning of the calls: active = hit (p65 shift raised or lowered); inactive = no clear change.
Shown is an unselected part of about 17,000 deposited reagents. 762 of all reagents (4.5%) were called active. 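Active calls include both raised and lowered p65 entry, mostly lowered; wells with fewer than 50 cells lack a z-score.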 The raw values are shown without normalisation. Reagents against one gene are numbered here. Some reagents were tested in more than one well and are listed for each.

Target gene,reagent,p65 translocation robust z-score,"nuclear/cytoplasmic p65 ratio, rep 1","nuclear/cytoplasmic p65 ratio, rep 2",low cell count flag,Outcome
Prl8a1,1,0.55,1.5,1.23,enough cells to score,inactive
Baiap2l1,1,1.3,1.8,1.81,enough cells to score,inactive
Klf17,1,0.73,1.53,1.32,enough cells to score,inactive
Ifnk,1,-0.25,1.51,1.27,enough cells to score,inactive
Epha2,1,0.72,1.72,1.54,enough cells to score,inactive
Egln2,1,0.01,1.43,1.4,enough cells to score,inactive
Vwa2,1,-0.61,1.47,1.64,enough cells to score,inactive
Rragc,1,0.23,1.48,1.22,enough cells to score,inactive
Cul4a,1,-0.04,1.51,1.34,enough cells to score,inactive
Ms4a4c,1,0.68,1.86,1.72,enough cells to score,inactive
Sprr2j-ps,1,1.17,1.6,1.36,enough cells to score,inactive
Snx19,1,0.05,1.48,1.19,enough cells to score,inactive
Gse1,1,-0.98,1.22,1.42,enough cells to score,inactive
Scn4a,1,1.25,1.71,1.84,enough cells to score,inactive
Supt20,1,-1.58,1.27,1.15,enough cells to score,active
Rxfp4,1,0.26,1.56,1.61,enough cells to score,inactive
Setd5,1,,1.41,1.34,fewer than 50 cells per well; well left out of scoring,inactive
Timcc,1,,1.29,1.37,fewer than 50 cells per well; well left out of scoring,inactive
Pkm,1,-0.49,1.61,1.25,enough cells to score,inactive
Zfp112,1,,1.02,0.912,fewer than 50 cells per well; well left out of scoring,inactive
Sppl3,1,,1.12,1.07,fewer than 50 cells per well; well left out of scoring,inactive
Vmn1r208,1,,1.01,1.36,fewer than 50 cells per well; well left out of scoring,inactive
Cd70,1,-0.06,1.47,1.55,enough cells to score,inactive
Or5g26,1,0.69,1.72,1.51,enough cells to score,inactive
Degs1,1,0.5,1.52,1.46,enough cells to score,inactive
Siah2,1,-0.62,1.47,1.46,enough cells to score,inactive
Hint3,1,0.51,1.56,1.56,enough cells to score,inactive
Calcb,1,-0.34,1.57,1.7,enough cells to score,inactive
Lrrc47,1,,1.05,1.23,fewer than 50 cells per well; well left out of scoring,inactive
Asap1,1,-0.31,1.62,1.53,enough cells to score,inactive
Epn2,1,-0.69,1.45,1.41,enough cells to score,inactive
Ssrp1,1,0.1,1.55,1.58,enough cells to score,inactive

13 successive entries from above:
Target gene,reagent,p65 translocation robust z-score,"nuclear/cytoplasmic p65 ratio, rep 1","nuclear/cytoplasmic p65 ratio, rep 2",low cell count flag,Outcome
Rxfp4,1,0.26,1.56,1.61,enough cells to score,inactive
Setd5,1,,1.41,1.34,fewer than 50 cells per well; well left out of scoring,inactive
Timcc,1,,1.29,1.37,fewer than 50 cells per well; well left out of scoring,inactive
Pkm,1,-0.49,1.61,1.25,enough cells to score,inactive
Zfp112,1,,1.02,0.912,fewer than 50 cells per well; well left out of scoring,inactive
Sppl3,1,,1.12,1.07,fewer than 50 cells per well; well left out of scoring,inactive
Vmn1r208,1,,1.01,1.36,fewer than 50 cells per well; well left out of scoring,inactive
Cd70,1,-0.06,1.47,1.55,enough cells to score,inactive
Or5g26,1,0.69,1.72,1.51,enough cells to score,inactive
Degs1,1,0.5,1.52,1.46,enough cells to score,inactive
Siah2,1,-0.62,1.47,1.46,enough cells to score,inactive
Hint3,1,0.51,1.56,1.56,enough cells to score,inactive
Calcb,1,-0.34,1.57,1.7,enough cells to score,inactive

The listing continues:
Target gene,reagent,p65 translocation robust z-score,"nuclear/cytoplasmic p65 ratio, rep 1","nuclear/cytoplasmic p65 ratio, rep 2",low cell count flag,Outcome
Ceacam9,1,0.43,1.65,1.86,enough cells to score,inactive
Natd1,1,-0.07,1.62,1.54,enough cells to score,inactive
Aspn,1,-0.06,1.41,1.57,enough cells to score,inactive
Mysm1,1,1.6,1.64,1.76,enough cells to score,inactive
Ptpn11,1,-1,1.33,1.3,enough cells to score,inactive
Creb1,1,-0.55,1.36,1.35,enough cells to score,inactive
Creb1,2,,1.18,1.33,fewer than 50 cells per well; well left out of scoring,inactive
Gtsf2,1,,1.29,1.4,fewer than 50 cells per well; well left out of scoring,inactive
Csn1s2b,1,-0.05,1.61,1.73,enough cells to score,inactive
Tarm1,1,0.54,1.55,1.57,enough cells to score,inactive
5330426L24Rik,1,0.47,1.36,1.59,enough cells to score,inactive
Alg1,1,0.76,1.62,1.9,enough cells to score,inactive
Ms4a7,1,0.82,1.83,1.64,enough cells to score,inactive
Sart3,1,-1.32,1.24,1.03,enough cells to score,inactive
Ahcyl1,1,0.66,1.78,1.66,enough cells to score,inactive
Idh3g,1,-2.65,1.21,1.04,enough cells to score,active
Xpo7,1,0.07,1.36,1.26,enough cells to score,inactive
Xpo7,2,,1.01,1.03,fewer than 50 cells per well; well left out of scoring,inactive
Zfp638,1,1.17,1.85,1.74,enough cells to score,inactive
Bms1,1,2.11,1.72,1.82,enough cells to score,inactive
Cpq,1,-1.33,1.26,1.06,enough cells to score,inactive
Cables1,1,,1.21,1.4,fewer than 50 cells per well; well left out of scoring,inactive
Oscp1,1,-0.76,1.39,1.22,enough cells to score,inactive
Rgs7bp,1,-0.64,1.48,1.68,enough cells to score,inactive
Ppnr,1,0.22,1.43,1.22,enough cells to score,inactive
Herc1,1,0.09,1.49,1.35,enough cells to score,inactive
Pi4kb,1,,1.48,1.29,fewer than 50 cells per well; well left out of scoring,inactive
Bpifc,1,0.41,1.42,1.65,enough cells to score,inactive
Slc5a11,1,,1.23,1.27,fewer than 50 cells per well; well left out of scoring,inactive
1700018B08Rik,1,1.9,1.7,1.61,enough cells to score,inactive
Slc39a4,1,0.08,1.52,1.59,enough cells to score,inactive
Snrpn,1,0.24,1.53,1.64,enough cells to score,inactive
Pdlim5,1,-0.98,2.03,1.26,enough cells to score,inactive
Pdlim5,1,-0.29,1.36,1.54,enough cells to score,inactive
Klb,1,0.38,1.54,1.68,enough cells to score,inactive
Nsun6,1,,1.23,1.41,fewer than 50 cells per well; well left out of scoring,inactive
Ttk,1,,1.46,1.33,fewer than 50 cells per well; well left out of scoring,inactive
Rpf1,1,,1.34,1.28,fewer than 50 cells per well; well left out of scoring,inactive
Actg2,1,0.34,1.65,1.69,enough cells to score,inactive
Gpc3,1,0.82,1.55,1.48,enough cells to score,inactive
Csf2rb2,1,-0.55,1.38,1.33,enough cells to score,inactive
Adprm,1,,1.29,1.87,fewer than 50 cells per well; well left out of scoring,inactive
Or5w1b,1,-1.05,1.6,1.33,enough cells to score,inactive
